Results published in PubChem BioAssay AID330 (DTP/NCI, 2004).
The list shows only some results of the screen, not a fair sample: it is rich in T/C values a quarter to a half above the control, in often repeated tests (any T/C) and in doses without a T/C. Further doses and runs are listed elsewhere. T/C: endpoint of the treated group in % of that of the vehicle group. Some entries give survivors of the animals treated and no T/C: the source holds a T/C of zero for them, seemingly a mark for toxic or unscored doses. Some doses without a T/C left all or most animals alive at the check, yet need not have been tolerated: survival well below the control is almost never listed, so the zero probably covers shortened survival too. Survivors were counted at the toxicity check, usually on the fifth day, unless a day is given; later deaths do not show. Schedule codes are those of the source, taken here to give the interval after Q, in days (D) or hours (H), and the number of doses after X. Some doses were run more than once; their values stand side by side, smallest first. For survival time, this PubChem deposit counts one and a half times the control or more as active, and values a quarter to a half above the control carry no call in these data; other NCI protocols may use other cut-offs.

Test system: P388 leukemia ip, CD2F1 mice, survival T/C
Experiment: NCI In Vivo Anticancer Drug Screen. Data for tumor model P388 Leukemia (intraperitoneal) in CD2F1 (CDF1) mice
Conditions: T/C endpoint: median survival time, higher T/C = longer survival
[1] = dose: 100.0 mg/kg/injection, schedule: Q01DX009 (ip), vehicle: saline with Tween-80
[2] = dose: 200.0 mg/kg/injection, schedule: Q01DX005 (ip), vehicle: saline with Tween-80
[3] = dose: 240.0 mg/kg/injection, schedule: Q01DX005 (ip), vehicle: saline with Tween-80
[4] = dose: 200.0 mg/kg/injection, schedule: Q01DX009 (ip), vehicle: saline
[5] = dose: 12.5 mg/kg/injection, schedule: Q01DX009 (ip), vehicle: saline with Tween-80
[6] = dose: 25.0 mg/kg/injection, schedule: Q01DX009 (ip), vehicle: saline with Tween-80
[7] = dose: 50.0 mg/kg/injection, schedule: Q01DX009 (ip), vehicle: saline
[8] = dose: 100.0 mg/kg/injection, schedule: Q01DX009 (ip), vehicle: saline
[9] = dose: 50.0 mg/kg/injection, schedule: Q01DX009 (ip), vehicle: saline with Tween-80
[10] = dose: 10.0 mg/kg/injection, schedule: Q01DX009 (ip), vehicle: Klucel (hydroxypropylcellulose) (HPC)
[11] = dose: 20.0 mg/kg/injection, schedule: Q01DX009 (ip), vehicle: Klucel (hydroxypropylcellulose) (HPC)
[12] = dose: 400.0 mg/kg/injection, schedule: Q04DX002 (ip), vehicle: saline with Tween-80
[13] = dose: 50.0 mg/kg/injection, schedule: Q01DX005 (ip), vehicle: Klucel (hydroxypropylcellulose) (HPC)
[14] = dose: 100.0 mg/kg/injection, schedule: Q01DX005 (ip), vehicle: Klucel (hydroxypropylcellulose) (HPC)
[15] = dose: 200.0 mg/kg/injection, schedule: Q01DX005 (ip), vehicle: Klucel (hydroxypropylcellulose) (HPC)
[16] = dose: 200.0 mg/kg/injection, schedule: Q01DX009 (ip), vehicle: Klucel (hydroxypropylcellulose) (HPC)
[17] = dose: 400.0 mg/kg/injection, schedule: Q04DX003 (ip), vehicle: saline with Tween-80

## CCC[CH2][Sn]1([CH2]CCC)[O]C2C(O)OC(CO)C(O)C2[O]1 (configuration not stated)
dose: 6.25 mg/kg/injection, schedule: Q04DX003 (ip), vehicle: saline
  survivor count: 5 of 6
dose: 12.5 mg/kg/injection, schedule: Q04DX003 (ip), vehicle: saline
  survivor count: 4 of 6 and 6 of 6
dose: 25.0 mg/kg/injection, schedule: Q04DX003 (ip), vehicle: saline
  survivor count: 0 of 6
dose: 25.0 mg/kg/injection, schedule: Q04DX003 (ip), vehicle: suspension in saline
  survivor count: 0 of 6
dose: 50.0 mg/kg/injection, schedule: Q04DX003 (ip), vehicle: saline
  survivor count: 0 of 6
dose: 50.0 mg/kg/injection, schedule: Q04DX003 (ip), vehicle: suspension in saline
  survivor count: 1 of 6
dose: 100.0 mg/kg/injection, schedule: Q04DX003 (ip), vehicle: suspension in saline
  survivor count: 0 of 6 and 3 of 6
dose: 200.0 mg/kg/injection, schedule: Q04DX003 (ip), vehicle: suspension in saline
  survivor count: 2 of 6
dose: 400.0 mg/kg/injection, schedule: Q04DX003 (ip), vehicle: suspension in saline
  survivor count: 0 of 6

## CC(=O)O.CC(=O)O.[Co+2].[NH-]C(CCC(N)=O)C(=O)O.[NH-]C(CCC(N)=O)C(=O)O (configuration not stated)
[1]
  survivor count: 6 of 6
dose: 200.0 mg/kg/injection, schedule: Q01DX009 (ip), vehicle: saline with Tween-80
  survivor count: 0 of 6

## COc1cc2nc3cc([N+](=O)[O-])ccc3c(NCCNCC(C)(C)O)c2cc1OC
dose: 50.0 mg/kg/injection, schedule: Q01DX005 (ip), vehicle: saline with Tween-80
  survivor count: 4 of 6, 4 of 5, 6 of 6
dose: 100.0 mg/kg/injection, schedule: Q01DX005 (ip), vehicle: saline with Tween-80
  survivor count: 0 of 5
[2]
  survivor count: 0 of 5

## CC(=O)ON(C(C)=O)c1ccc(C(=O)OC2(C)CC(C)(C)[N+]([O-])=N2)cc1 (configuration not stated) (tested in a mixture with another compound)
dose: 100.0 mg/kg/injection, schedule: Q01DX009 (ip), vehicle: water
  survivor count: 6 of 6

## C[C@]12C=CC(=O)NC[C@@H]1CC[C@@H]1[C@@H]2CC[C@]2(C)[C@@H](OC(=O)COc3ccc(N(CCCl)CCCl)cc3)CC[C@@H]12
[3]
  survivor count: 6 of 6

## O=C1CSC(=Nc2ccccc2)N1c1ccc(-n2c(-c3ccc(N=Cc4ccc(Cl)cc4)cc3)nc3ccccc3c2=O)cc1
dose: 120.0 mg/kg/injection, schedule: Q01DX005 (ip), vehicle: Klucel (hydroxypropylcellulose) (HPC)
  survivor count: 6 of 6
dose: 240.0 mg/kg/injection, schedule: Q01DX005 (ip), vehicle: Klucel (hydroxypropylcellulose) (HPC)
  survivor count: 6 of 6

## O=C1CCC2(O)[C@@H]3Cc4ccc(O)c5c4[C@]2(CCN3Cc2ccoc2)C1O5 (some centres not stated)
[4]
  survivor count: 2 of 6

## COc1cccc2c1[n+]([O-])c1cccc(O)c1[n+]2[O-]
dose: 6.25 mg/kg/injection, schedule: Q01DX009 (ip), vehicle: saline with Tween-80
  T/C: 127 % of control
[5]
  T/C: 126 % of control
[6]
  survivor count: 5 of 6
[7]
  survivor count: 1 of 6
[8]
  survivor count: 0 of 6
[4]
  survivor count: 0 of 6

## CC(=O)c1cnn(C(N)=O)c1C
dose: 60.0 mg/kg/injection, schedule: Q01DX005 (ip), vehicle: Klucel (hydroxypropylcellulose) (HPC)
  T/C: 127 % of control

## N#CC1CCCC(C#N)N1 (configuration not stated)
dose: 50.0 mg/kg/injection, schedule: Q01DX005 (ip), vehicle: saline
  survivor count: 0 of 5
dose: 100.0 mg/kg/injection, schedule: Q01DX005 (ip), vehicle: saline
  survivor count: 0 of 5
dose: 200.0 mg/kg/injection, schedule: Q01DX005 (ip), vehicle: saline
  survivor count: 0 of 5

## Cc1ccc(C[n+]2ccc3c([N+](=O)[O-])cccc3c2)cc1
[5]
  T/C: 137 % of control
[6]
  T/C: 127 % of control
[9]
  T/C: 137 % of control
  survivor count: 5 of 6

## C#CC(=O)O
[9]
  survivor count: 6 of 6

## COc1cc2c(cc1OC)-c1ccc(OC)c(=O)cc1CC(NC(=O)C(C)=O)C2 (configuration not stated)
dose: 2.5 mg/kg/injection, schedule: Q01DX009 (ip), vehicle: Klucel (hydroxypropylcellulose) (HPC)
  survivor count: 5 of 6
dose: 5.0 mg/kg/injection, schedule: Q01DX009 (ip), vehicle: Klucel (hydroxypropylcellulose) (HPC)
  survivor count: 0 of 6
[10]
  survivor count: 0 of 6
[11]
  survivor count: 0 of 6
dose: 40.0 mg/kg/injection, schedule: Q01DX009 (ip), vehicle: Klucel (hydroxypropylcellulose) (HPC)
  survivor count: 0 of 6
dose: 156.0 micrograms/kg/injection, schedule: Q01DX009 (ip), vehicle: Klucel (hydroxypropylcellulose) (HPC)
  T/C: 134 % of control
dose: 313.0 micrograms/kg/injection, schedule: Q01DX009 (ip), vehicle: Klucel (hydroxypropylcellulose) (HPC)
  T/C: 142 % of control

## COc1cc2c(c(OC)c1OC)-c1ccc(SC)c(=O)cc1C(NC(=O)c1ccccc1)CC2 (configuration not stated)
[10]
  survivor count: 6 of 6
[11]
  survivor count: 5 of 6
dose: 2500.0 micrograms/kg/injection, schedule: Q01DX009 (ip), vehicle: Klucel (hydroxypropylcellulose) (HPC)
  T/C: 130 % of control
dose: 5000.0 micrograms/kg/injection, schedule: Q01DX009 (ip), vehicle: Klucel (hydroxypropylcellulose) (HPC)
  T/C: 143 % of control

## NP(=O)(OCCC(=O)c1ccccc1)N(CCCl)CCCl (configuration not stated)
dose: 200.0 mg/kg/injection, schedule: Q04DX002 (ip), vehicle: saline with Tween-80
  survivor count: 5 of 6
[12]
  survivor count: 5 of 5

## C=CCn1c(COc2c(I)cc(I)c3cccnc23)n[nH]c1=S
dose: 25.0 mg/kg/injection, schedule: Q01DX005 (ip), vehicle: Klucel (hydroxypropylcellulose) (HPC), evaluated on day 20
  T/C: 125 % of control
dose: 25.0 mg/kg/injection, schedule: Q01DX005 (ip), vehicle: Klucel (hydroxypropylcellulose) (HPC), evaluated on day 30
  T/C: 133 % of control
[13]
  T/C: 125 % of control
  survivor count: 3 of 5
[14]
  survivor count: 5 of 5
[15]
  survivor count: 4 of 5

## NC(=O)c1[nH]cnc1O
[2]
  T/C: 132 % of control
[12]
  survivor count: 0 of 6

## S=C(Nc1ccccc1)Nc1ncccn1
[16]
  survivor count: 6 of 6

## COC(=O)c1nc(N)nc(C(=O)OC)c1C(=O)Cc1ccccc1
[3]
  survivor count: 0 of 6

## CCCCCN(CCCCC)CC(O)c1ccc(OC)c2ccccc12 (configuration not stated)
[15]
  survivor count: 4 of 5

## CCCCN(C)N=Nc1ccccc1C(N)=O
[1]
  T/C: 145 % of control
[17]
  T/C: 131 % of control

## C=C1C(=O)OC2CCCC(O)C12 (configuration not stated)
dose: 200.0 mg/kg/injection, schedule: Q04DX003 (ip), vehicle: Klucel (hydroxypropylcellulose) (HPC)
  survivor count: 0 of 6

## CCCC(C(=O)OCCN(CC)CC)(c1ccccc1)c1ccccc1
dose: 100.0 mg/kg/injection, schedule: Q04DX003 (ip), vehicle: saline with Tween-80
  survivor count: 4 of 6
dose: 200.0 mg/kg/injection, schedule: Q04DX003 (ip), vehicle: saline with Tween-80
  survivor count: 1 of 6
[17]
  survivor count: 0 of 6

## C[C-]=NCCCl.C[C-]=O.[C-]#[O+].[C-]#[O+].[C-]#[O+].[C-]#[O+].[Re]
[14]
  survivor count: 2 of 5
[15]
  survivor count: 0 of 5

## O=C(Oc1ccc[nH]c1=O)C12CC3CC(CC(C3)C1)C2
[7]
  survivor count: 6 of 6
[8]
  survivor count: 6 of 6

## Nc1ccc(C(=O)CCl)c(Cl)c1
dose: 100.0 mg/kg/injection, schedule: Q01DX009 (ip), vehicle: Klucel (hydroxypropylcellulose) (HPC)
  survivor count: 0 of 6
[16]
  survivor count: 0 of 6

## O=c1c2ccccc2[nH]c2cc3c(=O)n4ccccc4nc3cc12
dose: 120.0 mg/kg/injection, schedule: Q01DX005 (ip), vehicle: saline with Tween-80
  survivor count: 5 of 6

## Cc1ccc2c(c1)sc1n[nH]c(=O)n12
[16]
  survivor count: 6 of 6
